Source: patent US3966744A, “Spin labeled compounds” (priority 1974, dated 1976)

System: antibody (methadone assay)
Assay type: binding, rabbit
Details: 3.0 μg/ml

CCOC(=O)C1(c2ccccc2)CCN(C)CC1 [demerol]
% Mobilization: 7%
